# The supplement of paper PMC11732987, “Enantioselective OTUD7B fragment discovery through chemoproteomics screening and high-throughput optimisation” (Communications Chemistry, 2025)
# Amino acid sequences for entries named in this document (tags omitted). A change or cut given only in a name is not applied to a line headed by its entry. Residues count along the entry.
# UniProt O15067: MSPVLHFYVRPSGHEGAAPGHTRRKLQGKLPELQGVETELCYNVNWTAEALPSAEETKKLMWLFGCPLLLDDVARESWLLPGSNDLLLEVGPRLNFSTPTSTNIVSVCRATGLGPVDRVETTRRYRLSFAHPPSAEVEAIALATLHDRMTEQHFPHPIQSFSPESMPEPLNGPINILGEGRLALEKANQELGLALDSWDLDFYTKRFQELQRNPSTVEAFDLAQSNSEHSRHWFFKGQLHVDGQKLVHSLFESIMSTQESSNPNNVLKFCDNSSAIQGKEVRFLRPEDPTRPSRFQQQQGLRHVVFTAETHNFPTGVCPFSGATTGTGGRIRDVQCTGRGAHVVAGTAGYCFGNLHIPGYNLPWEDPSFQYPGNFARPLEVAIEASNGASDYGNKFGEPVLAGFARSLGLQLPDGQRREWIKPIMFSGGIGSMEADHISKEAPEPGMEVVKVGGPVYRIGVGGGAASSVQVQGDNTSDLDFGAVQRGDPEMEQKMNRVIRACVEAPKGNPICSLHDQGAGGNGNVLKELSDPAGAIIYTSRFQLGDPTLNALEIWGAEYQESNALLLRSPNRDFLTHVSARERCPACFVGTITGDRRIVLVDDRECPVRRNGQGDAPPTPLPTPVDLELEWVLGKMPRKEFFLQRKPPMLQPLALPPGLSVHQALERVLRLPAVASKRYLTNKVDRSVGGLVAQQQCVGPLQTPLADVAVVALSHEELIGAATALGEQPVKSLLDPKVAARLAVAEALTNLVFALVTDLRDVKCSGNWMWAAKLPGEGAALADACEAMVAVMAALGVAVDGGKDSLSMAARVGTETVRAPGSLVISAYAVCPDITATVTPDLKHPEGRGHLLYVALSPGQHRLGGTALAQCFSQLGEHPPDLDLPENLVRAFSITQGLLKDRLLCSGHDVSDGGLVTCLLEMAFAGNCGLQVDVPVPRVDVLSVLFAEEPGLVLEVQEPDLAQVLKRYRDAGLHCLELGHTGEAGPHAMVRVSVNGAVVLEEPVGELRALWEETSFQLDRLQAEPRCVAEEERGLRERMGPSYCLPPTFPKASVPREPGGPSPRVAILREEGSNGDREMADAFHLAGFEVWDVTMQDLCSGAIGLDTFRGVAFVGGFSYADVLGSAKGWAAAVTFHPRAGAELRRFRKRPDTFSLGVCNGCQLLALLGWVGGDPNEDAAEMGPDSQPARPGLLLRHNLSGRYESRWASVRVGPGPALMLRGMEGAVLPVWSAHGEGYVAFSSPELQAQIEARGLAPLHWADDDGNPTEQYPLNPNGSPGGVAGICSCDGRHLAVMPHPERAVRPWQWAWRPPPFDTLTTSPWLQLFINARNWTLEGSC
# UniProt Q9UQ80: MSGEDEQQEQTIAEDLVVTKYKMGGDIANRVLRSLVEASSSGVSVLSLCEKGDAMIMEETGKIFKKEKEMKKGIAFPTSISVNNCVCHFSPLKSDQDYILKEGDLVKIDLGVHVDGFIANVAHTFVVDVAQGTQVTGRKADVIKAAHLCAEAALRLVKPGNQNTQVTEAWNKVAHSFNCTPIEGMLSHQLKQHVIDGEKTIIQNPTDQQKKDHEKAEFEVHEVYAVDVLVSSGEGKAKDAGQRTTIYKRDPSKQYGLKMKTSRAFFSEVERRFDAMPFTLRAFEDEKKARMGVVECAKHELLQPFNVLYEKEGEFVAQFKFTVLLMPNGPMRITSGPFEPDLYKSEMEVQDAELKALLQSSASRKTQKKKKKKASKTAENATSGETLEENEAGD
# UniProt Q8N5Y8: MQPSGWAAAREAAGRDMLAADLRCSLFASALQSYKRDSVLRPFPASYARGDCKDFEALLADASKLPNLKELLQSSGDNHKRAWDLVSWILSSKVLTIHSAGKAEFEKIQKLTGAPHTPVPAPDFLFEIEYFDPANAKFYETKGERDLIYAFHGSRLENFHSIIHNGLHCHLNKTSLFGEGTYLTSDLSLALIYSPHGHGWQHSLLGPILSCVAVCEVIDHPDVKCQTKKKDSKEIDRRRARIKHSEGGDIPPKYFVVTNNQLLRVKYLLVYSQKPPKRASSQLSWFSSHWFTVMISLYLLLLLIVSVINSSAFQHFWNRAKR
# UniProt Q13371: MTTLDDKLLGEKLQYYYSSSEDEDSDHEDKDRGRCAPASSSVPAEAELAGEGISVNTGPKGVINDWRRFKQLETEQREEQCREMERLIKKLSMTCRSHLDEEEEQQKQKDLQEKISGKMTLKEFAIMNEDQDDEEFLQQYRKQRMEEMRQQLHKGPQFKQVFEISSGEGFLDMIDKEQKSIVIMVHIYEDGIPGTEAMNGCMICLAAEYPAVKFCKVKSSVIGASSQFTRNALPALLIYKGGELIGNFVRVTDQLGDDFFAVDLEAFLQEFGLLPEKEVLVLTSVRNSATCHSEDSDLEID
# UniProt Q15154: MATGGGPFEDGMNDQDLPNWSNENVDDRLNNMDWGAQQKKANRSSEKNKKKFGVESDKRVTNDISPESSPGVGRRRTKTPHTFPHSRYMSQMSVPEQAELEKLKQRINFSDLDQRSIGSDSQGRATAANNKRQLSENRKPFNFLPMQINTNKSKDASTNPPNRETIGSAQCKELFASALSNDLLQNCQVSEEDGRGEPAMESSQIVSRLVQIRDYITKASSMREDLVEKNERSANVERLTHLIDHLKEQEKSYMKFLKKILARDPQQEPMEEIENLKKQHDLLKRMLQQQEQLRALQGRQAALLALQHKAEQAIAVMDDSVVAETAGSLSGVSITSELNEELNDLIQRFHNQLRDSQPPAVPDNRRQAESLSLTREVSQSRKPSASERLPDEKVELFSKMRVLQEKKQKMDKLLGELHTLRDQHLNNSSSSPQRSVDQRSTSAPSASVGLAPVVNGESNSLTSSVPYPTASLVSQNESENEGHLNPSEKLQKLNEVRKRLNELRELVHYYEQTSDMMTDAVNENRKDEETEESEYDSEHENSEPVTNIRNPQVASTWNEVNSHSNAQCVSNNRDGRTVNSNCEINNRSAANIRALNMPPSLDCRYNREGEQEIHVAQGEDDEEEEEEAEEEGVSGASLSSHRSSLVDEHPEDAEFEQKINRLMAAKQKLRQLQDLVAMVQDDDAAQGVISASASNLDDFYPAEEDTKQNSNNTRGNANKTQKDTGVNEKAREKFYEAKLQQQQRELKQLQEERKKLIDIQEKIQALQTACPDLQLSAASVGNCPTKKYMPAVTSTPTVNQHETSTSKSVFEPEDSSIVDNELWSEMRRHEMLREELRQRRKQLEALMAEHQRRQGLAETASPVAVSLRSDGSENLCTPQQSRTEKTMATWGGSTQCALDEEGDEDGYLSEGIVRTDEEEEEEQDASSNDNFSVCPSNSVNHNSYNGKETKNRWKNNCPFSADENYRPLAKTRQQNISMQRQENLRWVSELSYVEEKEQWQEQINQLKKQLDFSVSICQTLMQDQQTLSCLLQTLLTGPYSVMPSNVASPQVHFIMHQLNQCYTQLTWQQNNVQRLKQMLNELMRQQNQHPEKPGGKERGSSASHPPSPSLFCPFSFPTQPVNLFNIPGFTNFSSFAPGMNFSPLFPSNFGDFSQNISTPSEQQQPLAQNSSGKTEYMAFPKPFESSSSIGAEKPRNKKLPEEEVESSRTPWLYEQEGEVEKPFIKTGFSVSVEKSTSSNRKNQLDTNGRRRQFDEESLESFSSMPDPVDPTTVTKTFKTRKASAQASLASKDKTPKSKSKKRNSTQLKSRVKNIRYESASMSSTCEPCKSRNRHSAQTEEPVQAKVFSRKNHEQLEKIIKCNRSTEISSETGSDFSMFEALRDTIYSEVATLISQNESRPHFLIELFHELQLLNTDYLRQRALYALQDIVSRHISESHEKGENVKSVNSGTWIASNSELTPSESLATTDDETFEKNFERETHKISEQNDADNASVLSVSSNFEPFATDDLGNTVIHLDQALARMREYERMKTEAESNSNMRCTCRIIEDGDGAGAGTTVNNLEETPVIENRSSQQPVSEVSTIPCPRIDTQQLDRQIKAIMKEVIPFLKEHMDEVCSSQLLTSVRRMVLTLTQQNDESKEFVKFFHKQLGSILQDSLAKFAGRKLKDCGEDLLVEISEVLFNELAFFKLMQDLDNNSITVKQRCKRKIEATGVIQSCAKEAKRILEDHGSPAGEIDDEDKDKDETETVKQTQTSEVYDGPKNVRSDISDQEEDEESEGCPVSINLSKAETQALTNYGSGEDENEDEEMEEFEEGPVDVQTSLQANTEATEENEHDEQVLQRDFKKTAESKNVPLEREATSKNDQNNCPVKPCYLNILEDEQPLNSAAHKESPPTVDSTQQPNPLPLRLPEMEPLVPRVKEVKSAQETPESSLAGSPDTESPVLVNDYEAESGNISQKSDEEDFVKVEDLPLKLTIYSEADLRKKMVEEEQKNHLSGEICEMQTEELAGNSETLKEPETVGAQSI
# UniProt Q86VP3, whole entry, looked up: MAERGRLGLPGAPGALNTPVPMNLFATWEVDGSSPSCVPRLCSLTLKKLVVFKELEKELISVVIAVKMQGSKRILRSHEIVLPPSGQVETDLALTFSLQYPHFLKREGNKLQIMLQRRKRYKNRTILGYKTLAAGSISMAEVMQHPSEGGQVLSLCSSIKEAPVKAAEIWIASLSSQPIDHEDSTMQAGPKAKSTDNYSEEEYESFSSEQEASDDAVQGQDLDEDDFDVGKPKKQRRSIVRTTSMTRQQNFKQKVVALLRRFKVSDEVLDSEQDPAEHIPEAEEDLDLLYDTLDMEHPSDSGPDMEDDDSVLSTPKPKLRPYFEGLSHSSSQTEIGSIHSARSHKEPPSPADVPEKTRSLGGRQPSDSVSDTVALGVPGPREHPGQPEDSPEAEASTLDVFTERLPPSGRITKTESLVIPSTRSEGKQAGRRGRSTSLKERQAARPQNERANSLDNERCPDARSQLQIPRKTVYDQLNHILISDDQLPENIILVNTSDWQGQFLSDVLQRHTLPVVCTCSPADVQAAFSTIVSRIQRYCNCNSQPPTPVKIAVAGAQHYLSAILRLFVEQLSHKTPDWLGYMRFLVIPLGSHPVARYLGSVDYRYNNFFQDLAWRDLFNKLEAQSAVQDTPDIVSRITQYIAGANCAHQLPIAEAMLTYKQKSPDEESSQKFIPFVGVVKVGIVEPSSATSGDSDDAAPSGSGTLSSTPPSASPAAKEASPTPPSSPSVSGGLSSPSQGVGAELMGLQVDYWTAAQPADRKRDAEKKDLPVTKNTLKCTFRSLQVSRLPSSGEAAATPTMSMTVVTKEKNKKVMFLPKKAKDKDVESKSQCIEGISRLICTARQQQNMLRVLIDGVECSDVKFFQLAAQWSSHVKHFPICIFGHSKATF
# UniProt P35080: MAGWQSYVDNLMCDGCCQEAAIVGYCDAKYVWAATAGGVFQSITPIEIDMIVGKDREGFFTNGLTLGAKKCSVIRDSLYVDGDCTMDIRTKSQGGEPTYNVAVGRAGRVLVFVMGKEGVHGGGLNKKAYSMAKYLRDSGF
# UniProt Q96KB5, 102-121: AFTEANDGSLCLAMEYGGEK
# UniProt Q9P0J1: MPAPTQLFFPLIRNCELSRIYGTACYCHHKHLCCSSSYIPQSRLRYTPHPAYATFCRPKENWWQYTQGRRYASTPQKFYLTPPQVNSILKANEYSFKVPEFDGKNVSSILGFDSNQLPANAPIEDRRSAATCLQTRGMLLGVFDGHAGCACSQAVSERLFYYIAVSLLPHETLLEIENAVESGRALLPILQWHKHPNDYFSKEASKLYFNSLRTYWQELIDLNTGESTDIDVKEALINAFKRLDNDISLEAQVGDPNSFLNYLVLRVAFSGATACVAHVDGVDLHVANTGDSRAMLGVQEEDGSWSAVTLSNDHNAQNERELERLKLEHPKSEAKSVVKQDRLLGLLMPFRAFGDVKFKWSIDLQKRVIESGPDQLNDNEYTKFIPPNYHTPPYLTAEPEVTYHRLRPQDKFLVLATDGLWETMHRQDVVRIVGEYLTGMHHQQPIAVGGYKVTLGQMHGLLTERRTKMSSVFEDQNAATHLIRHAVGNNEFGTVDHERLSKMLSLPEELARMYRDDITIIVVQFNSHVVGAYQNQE
# UniProt P36871: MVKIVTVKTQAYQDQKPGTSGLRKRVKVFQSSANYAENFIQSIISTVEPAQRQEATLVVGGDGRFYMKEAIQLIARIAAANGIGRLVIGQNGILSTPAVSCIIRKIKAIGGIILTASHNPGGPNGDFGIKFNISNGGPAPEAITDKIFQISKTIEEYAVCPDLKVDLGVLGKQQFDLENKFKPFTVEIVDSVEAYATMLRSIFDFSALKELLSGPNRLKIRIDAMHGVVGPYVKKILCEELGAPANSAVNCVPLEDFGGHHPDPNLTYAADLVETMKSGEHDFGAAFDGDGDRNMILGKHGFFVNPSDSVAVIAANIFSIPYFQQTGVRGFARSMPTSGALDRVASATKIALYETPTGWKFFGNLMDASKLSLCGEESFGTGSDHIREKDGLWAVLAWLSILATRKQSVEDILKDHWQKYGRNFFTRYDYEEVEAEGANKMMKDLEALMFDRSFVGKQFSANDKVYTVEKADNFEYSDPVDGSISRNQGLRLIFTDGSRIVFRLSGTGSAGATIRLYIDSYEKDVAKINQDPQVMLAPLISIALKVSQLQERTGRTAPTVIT
# The other results are listed elsewhere or left out. The data scatter; read single values as rough.
# Compound: ClCC(=O)N[C@@H]1CCCc2ccccc12
# Assay: log2 mean competition ratio of IA-DTB cysteine labelling (DMSO/compound) (log2 ratio); higher = stronger cysteine engagement by compound
# Details: 50 µM; treatment time: 4 h; cell line lysate: HEK293T
# Protocol: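 IA-DTB competitive cysteine chemoproteomics in HEK293T RIPA lysate. Lysates were treated with compound 29 or 30 at 50 or 200 µM for 4 h, then IA-DTB (500 µM, 1 h), trypsin-digested, NeutrAvidin-enriched and analysed by diaPASEF. Competition ratio = intensity DMSO / intensity compound (n=4 treated, n=64 DMSO); binding: mean log2 CR ≥ 1 and p ≤ 0.05 plus QC filters. Target is the cysteine site.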
row,Target,log2 mean competition ratio
1,PFAS C1044 (UniProt O15067),0.441
2,PCBP2 C158,0.265
3,PDE4DIP C603,-0.201
4,PA2G4 C149 (UniProt Q9UQ80),0.27
5,PALB2 C469 (UniProt Q86YC2),0.0348
6,PARP16 C52 (UniProt Q8N5Y8),0.089
7,PDCL C291 (UniProt Q13371),0.14
8,PCM1 C1585 (UniProt Q15154),-0.155
9,PACS2 C831 (UniProt Q86VP3),-0.252
10,PAX6 C52,0.494
11,PGP C297 (UniProt A6NDG6),0.0277
12,PCIF1 C361 (UniProt Q9H4Z3),-0.291
13,PGP C217 (UniProt A6NDG6),0.317
14,PALB2 C162 (UniProt Q86YC2),-0.194
15,PFN2 C84 (UniProt P35080),-0.00132
16,PGM3 C212,0.0454
17,PEX5 C423,-0.407
18,PBK C112 (UniProt Q96KB5),0.112
19,PCK2 C325 (UniProt Q16822),-0.0209
20,PCBP4 C58,-0.011
21,PDLIM7 C388 (UniProt Q9NR12),-0.19
22,PCCA C111 (UniProt P05165),-0.0688
23,PDP1 C132 (UniProt Q9P0J1),0.000371
24,PFAS C1027 (UniProt O15067),-0.129
25,PEX7 C5 (UniProt O00628),0.133
26,PGM1 C374 (UniProt P36871),-0.15
27,PHC2 C673 (UniProt Q8IXK0),-0.0392
28,PCNX1 C142 (UniProt Q96RV3),-0.226
29,PDCD7 C281 (UniProt Q8N8D1),-0.226
30,PDCD11 C694 (UniProt Q14690),-0.177

# Random excerpt: 2 records from the list, in no set order.
row,Target,log2 mean competition ratio
26,PGM1 C374 (UniProt P36871),-0.15
10,PAX6 C52,0.494
